Results are given in words; binding and its absence hold for the method and conditions named. Some entries that bind do so weakly or less than the wild type. For some assays here: Where a sequence is shown, tags or fusion partners need not be part of it. Blank lines part the entries; values can stand above or below the binder they belong to.
What was measured:
[1] = target: T1, human Bcl-B a.a. 11-175 with C-terminal avi-6his tag (human); assay: initial BLI screening (column 'Binds target?')
T1 sequence: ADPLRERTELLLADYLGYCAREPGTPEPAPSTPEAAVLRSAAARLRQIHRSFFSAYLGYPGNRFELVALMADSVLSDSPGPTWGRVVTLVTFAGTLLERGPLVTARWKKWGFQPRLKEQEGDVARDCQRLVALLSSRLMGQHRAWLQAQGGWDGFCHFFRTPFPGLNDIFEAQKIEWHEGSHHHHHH

Sequences of proteins named here, by UniProt entry; tags and fusion partners are left off. A change or cut given only in a name is not applied to a line headed by its entry.
UniProt P10415: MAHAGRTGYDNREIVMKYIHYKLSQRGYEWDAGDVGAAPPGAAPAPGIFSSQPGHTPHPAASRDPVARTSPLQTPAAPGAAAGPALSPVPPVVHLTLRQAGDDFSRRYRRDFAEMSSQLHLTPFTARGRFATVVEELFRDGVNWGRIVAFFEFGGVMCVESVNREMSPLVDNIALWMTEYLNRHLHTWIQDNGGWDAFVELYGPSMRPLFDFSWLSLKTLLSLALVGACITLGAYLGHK
UniProt Q07817: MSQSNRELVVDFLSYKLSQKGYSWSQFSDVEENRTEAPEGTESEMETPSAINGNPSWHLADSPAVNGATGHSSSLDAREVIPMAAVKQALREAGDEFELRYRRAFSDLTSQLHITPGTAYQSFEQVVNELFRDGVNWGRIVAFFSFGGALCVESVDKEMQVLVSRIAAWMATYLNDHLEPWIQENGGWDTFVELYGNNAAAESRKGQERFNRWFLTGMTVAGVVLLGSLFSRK

[2] = target: T2, human Bcl-w a.a. 1-182 with C-terminal avi-6his tag (human) (UniProt Q92843); assay: initial BLI screening (column 'Binds target?')
T2 sequence: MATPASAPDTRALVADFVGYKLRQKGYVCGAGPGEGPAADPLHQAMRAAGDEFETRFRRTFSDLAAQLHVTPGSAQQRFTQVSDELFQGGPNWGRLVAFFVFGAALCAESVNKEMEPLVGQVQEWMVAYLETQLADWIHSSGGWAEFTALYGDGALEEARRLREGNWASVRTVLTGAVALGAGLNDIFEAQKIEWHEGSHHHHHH

[3] = target: human Bcl-2 a.a. 1-207 with C-terminal avi-6his tag (human) (UniProt P10415); assay: BLI
[4] = target: human Bcl-2 a.a. 1-207 with C-terminal avi-6his tag (human) (UniProt P10415); assay: initial BLI screening (column 'Binds target?')
[5] = target: T3, human Bfl-1 a.a. 1-153 (C4S) with C-terminal avi-6his tag (human); assay: initial BLI screening (column 'Binds target?')
T3 sequence: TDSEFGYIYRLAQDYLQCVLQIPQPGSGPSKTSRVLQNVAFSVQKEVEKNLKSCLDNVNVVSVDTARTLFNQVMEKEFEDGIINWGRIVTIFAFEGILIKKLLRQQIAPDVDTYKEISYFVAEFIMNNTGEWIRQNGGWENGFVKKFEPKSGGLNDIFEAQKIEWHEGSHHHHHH

[6] = target: human Bcl-XL a.a. 1-205 with C-terminal avi-6his tag (human) (UniProt Q07817); assay: initial BLI screening (column 'Binds target?')
[7] = target: T1, human Bcl-B a.a. 11-175 with C-terminal avi-6his tag (human); assay: BLI at a single analyte concentration (50 nM, 600 s association, then buffer); biotinylated BCL2 protein on a streptavidin sensor
[8] = target: T3, human Bfl-1 a.a. 1-153 (C4S) with C-terminal avi-6his tag (human); assay: as above

B1: 10-CDP01 (designed binder)
chain: ADPKKVLDKAKDQAENRVRELKQELERLYKEARKLDLTQEMRRKLEWRYIAAMLKAIGDILNAIAQAENEADKLKKAGLVNSQQLDELRRRLEELAKEAARKAHDYGREFQLKLEY
- binding [1]: binds

B3: 2-CDP06 (designed binder)
chain: ADPKKVLDKAKDEAENRVRELKQKLEELYKEARKLDLTQEMRQELVDKARAASLQASGDIFYAILRALAEAEKLKKAGLVNSQQLDELKRRLEELAEEARRKAEKLGDEFRLKLEY
- binding [3]: binds
- binding [4]: binds

B4: F-CDP01 (designed binder)
chain: ADPKKVLDKAKDQAENRVRELKQKLEELYKEARKLDLTQEMRKKLQYAAIGAMLAAIGDILNAIMQAKQEADKLKKAGLVNSQQLDELKRRLEELKEEALRKAHDYGSEFYLKLEY
- binding [5]: binds

The remaining lines, values ahead:

- binding [2]: binds
B2: W-CDP03 (designed binder)
chain: DPKKVFDEAKDRAENNVRRLKQKLEELYKEARKKDLTQEEREKLKEKYKTAMAAAALAAIGDAFNALLKARKLHKNGQVNEQQLEELARRLQELAKEAFQKAKDYANEFEYKLEY

- binding [6]: binds
B5: X-CDP07 (designed binder)
chain: ADPKKVLDKAKDRAENVVRKLKKELEELYKEARKLDLTQEMRDRIRLAAIAARIAAFGDIFHAIMEALEEARKLKKAGLVNSQQLDELKRRLEELDEEAAQRAEKLGKEFELKLEY

- binding [7]: binds
- binding [8]: binds
B6: M-CDP02 (designed binder)
chain: ADPKKVLDKAKDQAENRVRELKQELEELYKEARKLDLTQEERRKLEESYIAAMLRAIGDIFNAIMQAKNEADKLKKAGLVNSQQLDELRRRLEELRKEASLKAEDYGREFQEKLEY

— patent US20160376333A1
